Test results published in PubChem BioAssay AID192 (DTP/NCI, 2004).
The list does not hold the whole screen: it gathers tests that were run many times, whatever their T/C, doses with no T/C, and many T/C values between a quarter and a half above the control. Other doses and runs of a compound stand elsewhere. T/C: endpoint of the treated group in % of that of the vehicle group. Some doses have a count of surviving animals in place of a T/C: the source holds a T/C of zero for them, seemingly a mark for toxic or unscored doses. Some doses without a T/C left all or most animals alive at the check, yet need not have been tolerated: the source hardly ever lists a survival T/C far under the control, and the zero likely stands for such cases as well. Counts of survivors are from the toxicity check (mostly the fifth day) where no day follows; animals may have died later. Schedules are NCI's codes, read here as Q, the interval in days (D) or hours (H), X, the number of doses. Some entries hold several experiments; their values stand side by side, smallest first. For survival time, the PubChem record calls one and a half times the control and up active, and a quarter to a half above the control has no call in these data; cut-offs in other NCI protocols can differ.

Test system: BDF1 mice, B16 melanoma ip, median survival T/C
Assay: NCI In Vivo Anticancer Drug Screen. Data for tumor model B16 Melanoma (intraperitoneal) in B6D2F1 (BDF1) mice
Conditions: T/C endpoint: median survival time, higher T/C = longer survival
How it was run: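 Tumor-bearing mice received test compound or vehicle. Survival or tumor size was then measured in both groups. The treated-group figure was divided by the control-group figure.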

[1] = dose: 12.0 mg/kg/injection, schedule: Q01DX009 (ip), vehicle: alcohol
[2] = dose: 12.0 mg/kg/injection, schedule: Q01DX009 (ip), vehicle: saline + alcohol

## N/C(=N\O)c1cn(C2OC(CO)C(O)C2O)c2ncnc(N)c12 (configuration not stated)
dose: 8.0 mg/kg/injection, schedule: Q01DX009 (ip), vehicle: saline
  survivor count: 6 of 6

## COc1ccc(C(=O)C(=O)c2ccc(OC)c(OC)c2)cc1OC
dose: 12.5 mg/kg/injection, schedule: Q01DX009 (ip), vehicle: saline with Tween-80
  survivor count: 10 of 10
dose: 25.0 mg/kg/injection, schedule: Q01DX009 (ip), vehicle: saline with Tween-80
  survivor count: 10 of 10
dose: 50.0 mg/kg/injection, schedule: Q01DX009 (ip), vehicle: saline with Tween-80
  survivor count: 10 of 10
dose: 100.0 mg/kg/injection, schedule: Q01DX009 (ip), vehicle: saline with Tween-80
  survivor count: 10 of 10
dose: 200.0 mg/kg/injection, schedule: Q01DX009 (ip), vehicle: saline with Tween-80
  survivor count: 10 of 10
dose: 400.0 mg/kg/injection, schedule: Q01DX009 (ip), vehicle: saline with Tween-80
  survivor count: 10 of 10

## CCOC(=O)c1c(N)sc2c1CCN(C)C2
dose: 50.0 mg/kg/injection, schedule: Q01DX009 (ip), vehicle: Klucel (hydroxypropylcellulose) (HPC)
  survivor count: 10 of 10
dose: 80.0 mg/kg/injection, schedule: Q04DX003 (ip), vehicle: Klucel (hydroxypropylcellulose) (HPC)
  survivor count: 10 of 10

## CC12CCC(O)CC1CCC1C2CCC2(C)C(c3ccc(=O)oc3)CCC12O (configuration not stated)
dose: 5.0 mg/kg/injection, schedule: Q01DX009 (ip), vehicle: saline with Tween-80
  survivor count: 0 of 10

## CCC[CH2][Sn]1([CH2]CCC)[N](S(=O)(=O)c2ccc(C)cc2)c2ccccc2[N]1S(=O)(=O)c1ccc(C)cc1
dose: 6.0 mg/kg/injection, schedule: Q01DX009 (ip), vehicle: Klucel (hydroxypropylcellulose) (HPC)
  survivor count: 9 of 10
dose: 12.0 mg/kg/injection, schedule: Q01DX009 (ip), vehicle: Klucel (hydroxypropylcellulose) (HPC)
  survivor count: 7 of 10

## O=S1(=O)N2CN3CN(C2)CN1C3
dose: 200.0 mg/kg/injection, schedule: Q01DX009 (ip), vehicle: Klucel (hydroxypropylcellulose) (HPC)
  survivor count: 8 of 10

## O=NN(CCCl)C(=O)NCCCl
dose: 1.5 mg/kg/injection, schedule: Q01DX009 (ip), vehicle: saline + alcohol
  T/C: 102, 116, 135, 138 % of control
dose: 2.5 mg/kg/injection, schedule: Q01DX009 (ip), vehicle: other
  T/C: 127 % of control
dose: 2.5 mg/kg/injection, schedule: Q04DX003 (ip), vehicle: saline + alcohol
  T/C: 128 % of control
dose: 3.0 mg/kg/injection, schedule: Q01DX009 (ip), vehicle: alcohol
  T/C: 125 and 126 % of control
dose: 3.0 mg/kg/injection, schedule: Q01DX009 (ip), vehicle: saline + alcohol
  T/C: 117, 127, 140, 152 % of control
dose: 3.75 mg/kg/injection, schedule: Q01DX009 (ip), vehicle: saline
  T/C: 137 % of control
dose: 4.0 mg/kg/injection, schedule: Q01DX009 (ip), vehicle: saline + alcohol
  T/C: 138 and 141 % of control
dose: 4.0 mg/kg/injection, schedule: Q01DX009 (ip), vehicle: saline with Tween-80
  T/C: 127 and 143 % of control
dose: 4.0 mg/kg/injection, schedule: Q04DX003 (ip), vehicle: saline + alcohol
  T/C: 130 % of control
dose: 5.0 mg/kg/injection, schedule: Q04DX003 (ip), vehicle: saline + alcohol
  T/C: 132 % of control
dose: 6.0 mg/kg/injection, schedule: Q01DX009 (ip), vehicle: saline + alcohol
  T/C: 137, 178, 185, 256 % of control
dose: 10.0 mg/kg/injection, schedule: Q01DX001 (ip), vehicle: saline + alcohol, evaluated on day 5
  T/C: 116 and 133 % of control
dose: 10.0 mg/kg/injection, schedule: Q01DX001 (ip), vehicle: saline + alcohol, evaluated on day 6
  T/C: 109 % of control
dose: 10.0 mg/kg/injection, schedule: Q01DX001 (ip), vehicle: saline + alcohol, evaluated on day 45
  T/C: 131 % of control
dose: 10.0 mg/kg/injection, schedule: Q01DX001 (ip), vehicle: saline + alcohol, evaluated on day 60
  T/C: 132 % of control
dose: 10.0 mg/kg/injection, schedule: Q01DX009 (ip), vehicle: other
  survivor count: 5 of 5
dose: 10.0 mg/kg/injection, schedule: Q04DX003 (ip), vehicle: saline + alcohol
  T/C: 141 % of control
[1]
  T/C: 137 % of control
  survivor count: 10 of 10
dose: 12.0 mg/kg/injection, schedule: Q01DX009 (ip), vehicle: other
  survivor count: 9 of 10
[2]
  T/C: 200 and 278 % of control
  survivor count: 10 of 10
dose: 15.0 mg/kg/injection, schedule: Q01DX001 (ip), vehicle: saline
  T/C: 145 % of control
dose: 15.0 mg/kg/injection, schedule: Q01DX009 (ip), vehicle: saline
  survivor count: 6 of 6
dose: 16.0 mg/kg/injection, schedule: Q01DX001 (ip), vehicle: saline + alcohol
  T/C: 143 % of control
dose: 16.0 mg/kg/injection, schedule: Q01DX009 (ip), vehicle: saline with Tween-80
  survivor count: 10 of 10
dose: 20.0 mg/kg/injection, schedule: Q01DX001 (ip), vehicle: saline + alcohol, evaluated on day 5
  T/C: 129 and 144 % of control
dose: 20.0 mg/kg/injection, schedule: Q01DX001 (ip), vehicle: saline + alcohol, evaluated on day 6
  T/C: 127 % of control
dose: 20.0 mg/kg/injection, schedule: Q01DX001 (ip), vehicle: saline + alcohol, evaluated on day 13
  T/C: 132 and 145 % of control
dose: 20.0 mg/kg/injection, schedule: Q01DX001 (ip), vehicle: saline + alcohol, evaluated on day 45
  T/C: 143 % of control
dose: 20.0 mg/kg/injection, schedule: Q01DX001 (ip), vehicle: saline + alcohol, evaluated on day 60
  T/C: 154 % of control
dose: 20.0 mg/kg/injection, schedule: Q01DX009 (ip), vehicle: other
  survivor count: 5 of 5
dose: 24.0 mg/kg/injection, schedule: Q01DX009 (ip), vehicle: alcohol
  survivor count: 10 of 10
dose: 24.0 mg/kg/injection, schedule: Q01DX009 (ip), vehicle: other
  survivor count: 8 of 10 and 10 of 10
dose: 24.0 mg/kg/injection, schedule: Q01DX009 (ip), vehicle: saline + alcohol
  survivor count: 10 of 10
dose: 25.0 mg/kg/injection, schedule: Q01DX009 (ip), vehicle: alcohol
  survivor count: 10 of 10
dose: 30.0 mg/kg/injection, schedule: Q01DX009 (ip), vehicle: saline
  survivor count: 6 of 6
dose: 32.0 mg/kg/injection, schedule: Q01DX001 (ip), vehicle: saline + alcohol
  T/C: 134 % of control
dose: 32.0 mg/kg/injection, schedule: Q01DX009 (ip), vehicle: saline with Tween-80
  survivor count: 10 of 10
dose: 40.0 mg/kg/injection, schedule: Q01DX001 (ip), vehicle: saline + alcohol, evaluated on day 5
  T/C: 159 and 174 % of control
dose: 40.0 mg/kg/injection, schedule: Q01DX001 (ip), vehicle: saline + alcohol, evaluated on day 6
  T/C: 150 % of control
dose: 40.0 mg/kg/injection, schedule: Q01DX001 (ip), vehicle: saline + alcohol, evaluated on day 13
  T/C: 124 and 155 % of control
dose: 40.0 mg/kg/injection, schedule: Q01DX001 (ip), vehicle: saline + alcohol, evaluated on day 45
  T/C: 165 % of control
dose: 40.0 mg/kg/injection, schedule: Q01DX001 (ip), vehicle: saline + alcohol, evaluated on day 60
  T/C: 272 % of control
dose: 60.0 mg/kg/injection, schedule: Q01DX009 (ip), vehicle: saline
  survivor count: 2 of 6
dose: 80.0 mg/kg/injection, schedule: Q01DX001 (ip), vehicle: saline + alcohol, evaluated on day 5
  T/C: 32 % of control
dose: 80.0 mg/kg/injection, schedule: Q01DX001 (ip), vehicle: saline + alcohol, evaluated on day 13
  T/C: 46 and 128 % of control
dose: 80.0 mg/kg/injection, schedule: Q01DX001 (ip), vehicle: saline + alcohol
  survivor count: 10 of 10
dose: 80.0 mg/kg/injection, schedule: Q01DX001 (ip), vehicle: saline
  survivor count: 10 of 10
